This is one part of the list.

Protein sequences, listed by entry. Tags and fused reporters are not part of them. Lines headed by an entry give the natural chain unless they say otherwise; changes in a name come on top.
UniProt Q13885, whole entry, looked up: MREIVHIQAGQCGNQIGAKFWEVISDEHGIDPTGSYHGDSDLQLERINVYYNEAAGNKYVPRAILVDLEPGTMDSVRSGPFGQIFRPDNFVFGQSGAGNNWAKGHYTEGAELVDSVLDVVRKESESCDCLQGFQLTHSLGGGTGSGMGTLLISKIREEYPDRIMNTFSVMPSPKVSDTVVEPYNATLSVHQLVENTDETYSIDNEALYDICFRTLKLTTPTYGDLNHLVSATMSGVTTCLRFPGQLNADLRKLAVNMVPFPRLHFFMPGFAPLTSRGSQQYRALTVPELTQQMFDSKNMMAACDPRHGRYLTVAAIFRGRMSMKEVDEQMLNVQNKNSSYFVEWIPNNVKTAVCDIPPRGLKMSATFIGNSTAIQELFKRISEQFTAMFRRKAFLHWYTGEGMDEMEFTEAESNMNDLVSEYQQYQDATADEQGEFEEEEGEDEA
UniProt P51668: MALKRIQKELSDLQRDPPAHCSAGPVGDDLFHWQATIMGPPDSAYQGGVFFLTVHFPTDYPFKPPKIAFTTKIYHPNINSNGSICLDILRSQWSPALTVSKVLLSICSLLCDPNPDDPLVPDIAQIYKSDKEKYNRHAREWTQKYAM
UniProt P0DPH7, whole entry, looked up: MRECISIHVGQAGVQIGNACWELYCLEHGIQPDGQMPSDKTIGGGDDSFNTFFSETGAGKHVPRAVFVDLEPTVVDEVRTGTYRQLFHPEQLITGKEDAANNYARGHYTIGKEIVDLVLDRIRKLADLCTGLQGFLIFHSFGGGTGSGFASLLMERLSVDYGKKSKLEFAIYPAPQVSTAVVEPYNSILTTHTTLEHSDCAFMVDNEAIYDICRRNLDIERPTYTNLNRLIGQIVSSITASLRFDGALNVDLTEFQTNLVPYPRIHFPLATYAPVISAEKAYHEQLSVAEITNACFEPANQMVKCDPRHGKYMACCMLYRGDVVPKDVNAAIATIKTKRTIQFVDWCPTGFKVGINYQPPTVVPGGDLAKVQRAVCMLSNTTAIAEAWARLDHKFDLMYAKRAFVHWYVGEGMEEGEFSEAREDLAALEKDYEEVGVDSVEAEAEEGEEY
UniProt P60604: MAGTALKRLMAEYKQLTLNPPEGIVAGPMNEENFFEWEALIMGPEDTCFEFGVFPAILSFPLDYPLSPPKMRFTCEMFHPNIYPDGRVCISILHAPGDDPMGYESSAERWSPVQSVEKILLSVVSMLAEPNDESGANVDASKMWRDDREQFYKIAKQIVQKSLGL
UniProt Q9BRA2: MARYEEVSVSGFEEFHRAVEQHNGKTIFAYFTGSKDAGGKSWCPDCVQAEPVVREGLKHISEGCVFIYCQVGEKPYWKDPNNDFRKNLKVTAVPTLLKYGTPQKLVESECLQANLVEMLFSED
UniProt O94888: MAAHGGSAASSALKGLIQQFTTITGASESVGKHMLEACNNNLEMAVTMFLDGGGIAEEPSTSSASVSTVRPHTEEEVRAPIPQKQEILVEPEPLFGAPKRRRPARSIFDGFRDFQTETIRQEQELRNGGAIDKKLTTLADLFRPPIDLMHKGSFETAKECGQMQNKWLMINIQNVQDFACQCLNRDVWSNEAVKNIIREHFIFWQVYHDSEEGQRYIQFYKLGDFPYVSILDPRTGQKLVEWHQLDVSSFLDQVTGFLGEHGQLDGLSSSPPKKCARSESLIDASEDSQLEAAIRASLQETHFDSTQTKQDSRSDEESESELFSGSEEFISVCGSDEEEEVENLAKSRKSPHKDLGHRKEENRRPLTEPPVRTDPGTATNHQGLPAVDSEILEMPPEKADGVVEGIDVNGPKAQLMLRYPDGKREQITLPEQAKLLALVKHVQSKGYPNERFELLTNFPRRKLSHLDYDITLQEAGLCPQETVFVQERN
UniProt Q9GZZ9, whole entry, looked up: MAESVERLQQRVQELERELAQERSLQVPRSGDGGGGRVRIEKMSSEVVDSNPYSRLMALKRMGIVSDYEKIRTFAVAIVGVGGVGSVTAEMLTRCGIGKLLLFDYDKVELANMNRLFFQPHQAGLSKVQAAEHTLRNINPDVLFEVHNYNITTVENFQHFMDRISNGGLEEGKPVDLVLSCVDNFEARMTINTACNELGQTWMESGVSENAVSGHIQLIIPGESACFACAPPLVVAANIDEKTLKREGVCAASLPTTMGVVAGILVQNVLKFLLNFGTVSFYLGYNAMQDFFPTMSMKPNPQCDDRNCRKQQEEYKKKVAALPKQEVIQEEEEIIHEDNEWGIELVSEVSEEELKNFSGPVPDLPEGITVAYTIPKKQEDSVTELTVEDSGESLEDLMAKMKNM
UniProt Q969M7: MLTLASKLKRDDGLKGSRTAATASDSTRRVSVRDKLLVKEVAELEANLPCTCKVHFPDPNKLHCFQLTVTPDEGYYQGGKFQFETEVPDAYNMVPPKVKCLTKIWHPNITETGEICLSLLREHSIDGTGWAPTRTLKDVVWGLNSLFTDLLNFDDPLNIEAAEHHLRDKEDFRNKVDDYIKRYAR
UniProt Q9BZX2: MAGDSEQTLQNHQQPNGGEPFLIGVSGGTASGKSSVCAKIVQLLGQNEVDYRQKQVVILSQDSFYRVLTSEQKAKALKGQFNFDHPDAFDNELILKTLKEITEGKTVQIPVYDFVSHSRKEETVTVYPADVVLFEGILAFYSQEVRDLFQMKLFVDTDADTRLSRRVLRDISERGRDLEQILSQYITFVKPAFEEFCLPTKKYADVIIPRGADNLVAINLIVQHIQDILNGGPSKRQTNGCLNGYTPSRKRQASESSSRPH
UniProt Q05086: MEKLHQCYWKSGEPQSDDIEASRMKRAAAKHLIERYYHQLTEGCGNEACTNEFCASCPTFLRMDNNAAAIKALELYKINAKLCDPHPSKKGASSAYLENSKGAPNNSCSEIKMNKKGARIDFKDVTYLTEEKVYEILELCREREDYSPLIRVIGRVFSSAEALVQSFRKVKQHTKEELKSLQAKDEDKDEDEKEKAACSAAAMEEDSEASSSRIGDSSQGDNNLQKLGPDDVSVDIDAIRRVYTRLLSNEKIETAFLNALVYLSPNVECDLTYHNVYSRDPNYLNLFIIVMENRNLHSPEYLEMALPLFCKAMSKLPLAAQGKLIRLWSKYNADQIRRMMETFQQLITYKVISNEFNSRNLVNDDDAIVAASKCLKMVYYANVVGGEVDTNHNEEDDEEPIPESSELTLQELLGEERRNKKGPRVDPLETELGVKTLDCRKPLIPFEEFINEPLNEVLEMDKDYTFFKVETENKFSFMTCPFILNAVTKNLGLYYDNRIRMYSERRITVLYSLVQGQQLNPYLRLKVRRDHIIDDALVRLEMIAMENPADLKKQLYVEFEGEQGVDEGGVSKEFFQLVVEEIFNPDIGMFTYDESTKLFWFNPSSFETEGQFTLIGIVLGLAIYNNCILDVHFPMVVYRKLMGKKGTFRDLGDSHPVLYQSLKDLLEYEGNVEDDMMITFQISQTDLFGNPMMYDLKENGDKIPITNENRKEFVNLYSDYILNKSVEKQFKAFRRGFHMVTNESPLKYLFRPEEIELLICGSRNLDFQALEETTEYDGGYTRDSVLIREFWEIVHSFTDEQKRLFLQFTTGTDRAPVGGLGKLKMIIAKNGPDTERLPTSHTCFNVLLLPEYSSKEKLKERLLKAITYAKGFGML
UniProt Q969T4: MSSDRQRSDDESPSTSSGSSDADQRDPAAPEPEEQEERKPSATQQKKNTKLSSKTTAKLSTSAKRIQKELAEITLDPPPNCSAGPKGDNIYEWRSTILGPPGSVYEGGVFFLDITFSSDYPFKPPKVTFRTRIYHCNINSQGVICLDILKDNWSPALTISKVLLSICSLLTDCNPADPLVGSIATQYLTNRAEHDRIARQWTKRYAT
UniProt Q9Y5Z9: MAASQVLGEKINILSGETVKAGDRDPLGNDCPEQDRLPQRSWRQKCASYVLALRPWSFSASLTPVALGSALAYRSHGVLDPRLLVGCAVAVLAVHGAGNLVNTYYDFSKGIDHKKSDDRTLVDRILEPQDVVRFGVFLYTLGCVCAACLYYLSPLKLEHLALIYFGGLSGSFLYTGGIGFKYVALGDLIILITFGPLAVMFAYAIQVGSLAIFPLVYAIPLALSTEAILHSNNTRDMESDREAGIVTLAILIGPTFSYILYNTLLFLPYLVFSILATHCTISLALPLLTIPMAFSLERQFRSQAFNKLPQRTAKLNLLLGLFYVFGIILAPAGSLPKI
UniProt Q9UMX0, whole entry, looked up: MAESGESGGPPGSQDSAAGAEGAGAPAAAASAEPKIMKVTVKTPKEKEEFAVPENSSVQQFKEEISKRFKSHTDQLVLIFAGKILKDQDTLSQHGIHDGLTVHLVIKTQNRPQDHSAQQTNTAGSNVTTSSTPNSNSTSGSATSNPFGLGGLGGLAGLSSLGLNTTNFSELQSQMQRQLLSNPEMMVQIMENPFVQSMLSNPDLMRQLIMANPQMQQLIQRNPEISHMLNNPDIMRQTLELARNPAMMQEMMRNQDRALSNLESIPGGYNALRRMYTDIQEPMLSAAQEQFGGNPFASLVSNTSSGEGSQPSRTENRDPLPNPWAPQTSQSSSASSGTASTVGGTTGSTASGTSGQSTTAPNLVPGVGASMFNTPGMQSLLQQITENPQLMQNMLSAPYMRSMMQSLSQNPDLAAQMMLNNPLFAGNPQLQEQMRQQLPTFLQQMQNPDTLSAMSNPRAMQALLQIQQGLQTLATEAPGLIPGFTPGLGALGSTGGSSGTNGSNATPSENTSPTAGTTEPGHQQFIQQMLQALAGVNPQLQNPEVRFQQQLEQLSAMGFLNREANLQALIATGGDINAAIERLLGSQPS
UniProt P61088: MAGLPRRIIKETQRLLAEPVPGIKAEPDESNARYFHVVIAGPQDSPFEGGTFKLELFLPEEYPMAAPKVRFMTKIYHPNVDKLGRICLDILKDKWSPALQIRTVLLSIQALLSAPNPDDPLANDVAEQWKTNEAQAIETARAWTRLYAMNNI
UniProt P68543: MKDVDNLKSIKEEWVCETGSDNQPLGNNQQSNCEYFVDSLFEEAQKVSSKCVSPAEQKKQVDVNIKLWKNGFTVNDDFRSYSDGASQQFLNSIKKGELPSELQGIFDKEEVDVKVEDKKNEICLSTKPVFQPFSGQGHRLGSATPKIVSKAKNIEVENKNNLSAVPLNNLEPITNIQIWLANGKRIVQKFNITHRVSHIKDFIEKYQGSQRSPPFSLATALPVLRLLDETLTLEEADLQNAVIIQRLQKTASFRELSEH
UniProt Q8N2K1: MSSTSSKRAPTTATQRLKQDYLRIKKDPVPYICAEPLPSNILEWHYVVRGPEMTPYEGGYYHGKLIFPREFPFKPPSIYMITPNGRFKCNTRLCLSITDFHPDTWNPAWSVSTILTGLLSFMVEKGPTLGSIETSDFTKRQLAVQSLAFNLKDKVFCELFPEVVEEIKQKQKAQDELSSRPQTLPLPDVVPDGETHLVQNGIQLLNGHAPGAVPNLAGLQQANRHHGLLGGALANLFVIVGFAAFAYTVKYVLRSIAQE
UniProt Q9H6E5: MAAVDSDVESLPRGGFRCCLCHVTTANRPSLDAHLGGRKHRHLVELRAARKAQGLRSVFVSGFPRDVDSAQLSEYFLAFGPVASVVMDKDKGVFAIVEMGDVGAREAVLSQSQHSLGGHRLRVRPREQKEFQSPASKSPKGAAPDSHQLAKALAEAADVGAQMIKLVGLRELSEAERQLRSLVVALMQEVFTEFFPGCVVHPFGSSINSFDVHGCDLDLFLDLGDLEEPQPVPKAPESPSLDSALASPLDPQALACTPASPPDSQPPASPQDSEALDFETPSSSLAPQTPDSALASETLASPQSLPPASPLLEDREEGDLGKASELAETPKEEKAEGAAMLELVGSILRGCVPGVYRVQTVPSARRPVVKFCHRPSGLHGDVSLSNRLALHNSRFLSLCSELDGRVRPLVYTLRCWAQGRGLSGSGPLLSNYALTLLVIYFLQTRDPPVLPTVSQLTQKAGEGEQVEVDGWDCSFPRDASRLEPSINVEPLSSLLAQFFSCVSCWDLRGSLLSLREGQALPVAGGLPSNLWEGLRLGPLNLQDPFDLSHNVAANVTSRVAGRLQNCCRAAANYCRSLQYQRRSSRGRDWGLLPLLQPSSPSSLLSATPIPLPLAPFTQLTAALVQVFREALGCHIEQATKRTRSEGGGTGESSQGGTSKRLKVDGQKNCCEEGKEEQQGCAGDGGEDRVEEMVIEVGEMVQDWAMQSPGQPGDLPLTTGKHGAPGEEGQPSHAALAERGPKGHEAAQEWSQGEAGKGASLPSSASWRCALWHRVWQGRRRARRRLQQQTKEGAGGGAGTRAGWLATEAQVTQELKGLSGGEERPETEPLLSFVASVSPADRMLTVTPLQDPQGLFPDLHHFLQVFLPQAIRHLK

Compound in this assay: CN1CCN(CCOc2cc(OC3CCOCC3)c3c(Nc4c(Cl)ccc5c4OCO5)ncnc3c2)CC1 [saracatinib]
The assay is described as follows: log2 fold change, soluble protein after heating vs DMSO (PISA); higher = thermal stabilisation; K562 lysate, 10 uM; active = over 0.2 and 3.5 SD of the protein, either way, in both replicates (recomputed). The method in brief:
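Thermal stability, expressed as log-two fold change relative to solvent controls, is given from duplicates. Crude K562 extract in PBS pH 7.4 with 1 mM MgCl2, at 1 mg/mL protein, was treated with 10 μM compound for 30 min and heated in aliquots for 3 min across 48°C-58°C. After pooling, adjustment to 0.5% NP-40 at 4°C and centrifugation at 21,000xg for 90 min, supernatant protein was measured by TMTpro 16plex LC-MS/MS with channel sums equalised.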
As to TUBB2A (UniProt Q13885), the log2 fold change is inactive: 0.011. For UBE2D1 (UniProt P51668), the log2 fold change is inactive: 0.043. Take UBN1 (UniProt Q9NPG3): the log2 fold change was inactive: 0.04. For TUBA3C (UniProt P0DPH7), the log2 fold change was inactive: 0.013. With UBE2G2 (UniProt P60604) the figure was inactive: 0.086; with UBE2I (UniProt H3BQQ9), inactive: -0.075. As for TXNDC17 (UniProt Q9BRA2), the log2 fold change was inactive: -0.014. Take UBE3B (UniProt Q7Z3V4): the log2 fold change is inactive: -0.069. For the target UBXN7 (UniProt O94888), the log2 fold change is inactive: 0.003. Consider UBA5 (UniProt Q9GZZ9), for which the log2 fold change was inactive: 0.001. As for UBE2F isoform 2 (UniProt Q969M7), the figure is inactive: -0.116; as for UCK2 (UniProt Q9BZX2), inactive: 0.03. As for UBE3A (UniProt Q05086), the figure is inactive: -0.003.

Consider UBE2E3 (UniProt Q969T4), for which the log2 fold change was inactive: -0.012. Turning to UBIAD1 (UniProt Q9Y5Z9), the log2 fold change was inactive: -0.036. As for UBQLN1 isoform 2 (UniProt Q9UMX0), the log2 fold change was inactive: -0.06.

Regarding UBE2N (UniProt P61088), the log2 fold change is inactive: -0.006.

As to UBR4 isoform 4 (UniProt Q5T4S7), the log2 fold change is inactive: 0.061. Regarding UBR4 (UniProt Q5T4S7), the log2 fold change is inactive: 0.01.

As for UBXN2A (UniProt P68543), the log2 fold change is inactive: -0.01.

With UBE2J2 (UniProt Q8N2K1), the log2 fold change was inactive: -0.068. Turning to TUFM (UniProt P49411), the log2 fold change is inactive: 0.022. For TUT1 (UniProt Q9H6E5), the log2 fold change is inactive: 0.005.

(Values after the supplement of paper PMC10849652.)
